From patent EP4353258A1
No constants are given. Whether binding was seen depends on the method and setting. Some entries that bind do so weakly or less than the wild type.

T1: CD206 antigen (prepared by the Department of Molecular Neuroscience, University of Toyama), immobilized on an ELISA plate (mouse) (UniProt Q61830)
T1 sequence (looked up): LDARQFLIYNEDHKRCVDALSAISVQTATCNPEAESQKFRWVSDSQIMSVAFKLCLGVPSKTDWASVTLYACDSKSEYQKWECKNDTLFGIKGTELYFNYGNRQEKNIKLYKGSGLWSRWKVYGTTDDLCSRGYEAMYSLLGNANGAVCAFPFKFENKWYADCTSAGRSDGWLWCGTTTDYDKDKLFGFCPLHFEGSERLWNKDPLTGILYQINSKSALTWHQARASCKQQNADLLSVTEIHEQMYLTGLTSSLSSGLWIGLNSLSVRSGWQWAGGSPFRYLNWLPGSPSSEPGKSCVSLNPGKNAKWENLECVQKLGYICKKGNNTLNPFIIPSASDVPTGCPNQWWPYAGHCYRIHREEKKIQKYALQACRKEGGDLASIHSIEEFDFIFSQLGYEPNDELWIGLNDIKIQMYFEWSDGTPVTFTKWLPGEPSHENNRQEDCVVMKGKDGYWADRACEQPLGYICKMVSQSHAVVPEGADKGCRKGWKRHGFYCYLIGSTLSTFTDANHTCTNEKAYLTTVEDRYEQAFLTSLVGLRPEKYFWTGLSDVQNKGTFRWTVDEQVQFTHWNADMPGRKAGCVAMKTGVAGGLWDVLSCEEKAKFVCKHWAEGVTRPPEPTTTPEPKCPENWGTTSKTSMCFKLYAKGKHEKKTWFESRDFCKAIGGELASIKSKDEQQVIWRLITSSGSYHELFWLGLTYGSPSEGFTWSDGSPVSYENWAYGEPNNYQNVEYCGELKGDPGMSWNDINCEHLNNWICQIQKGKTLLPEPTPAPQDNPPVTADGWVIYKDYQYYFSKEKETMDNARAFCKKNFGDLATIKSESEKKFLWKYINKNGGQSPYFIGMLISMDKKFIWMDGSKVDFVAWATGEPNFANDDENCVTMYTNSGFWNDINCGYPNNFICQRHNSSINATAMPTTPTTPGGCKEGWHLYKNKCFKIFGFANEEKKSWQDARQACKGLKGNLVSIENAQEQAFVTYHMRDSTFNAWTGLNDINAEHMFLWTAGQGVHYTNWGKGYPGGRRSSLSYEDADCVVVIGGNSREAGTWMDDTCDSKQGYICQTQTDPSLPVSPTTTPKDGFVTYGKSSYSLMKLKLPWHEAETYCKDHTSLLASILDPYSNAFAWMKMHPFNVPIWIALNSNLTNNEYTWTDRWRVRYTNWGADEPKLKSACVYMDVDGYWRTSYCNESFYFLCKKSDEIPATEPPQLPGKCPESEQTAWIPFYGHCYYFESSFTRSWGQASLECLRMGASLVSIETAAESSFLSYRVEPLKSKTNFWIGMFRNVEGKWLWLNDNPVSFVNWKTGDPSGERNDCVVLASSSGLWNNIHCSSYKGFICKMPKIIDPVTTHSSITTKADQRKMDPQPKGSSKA


biological target: T1, CD206 antigen (prepared by the Department of Molecular Neuroscience, University of Toyama), immobilized on an ELISA plate (mouse); experiment: ELISA, CD206 antigen immobilized on plate

Row | Binder | binding
1 | anti-CD206 antibody (No. 10) (antibody, V domains shown) VH: QVQLQQPGAELVRPGSSVKLSCKASGYTFISYWMDWVKQRPGQGLEWIGNIFPSDSETHYNQKFRDKATLTVDKSSSTASIHLSSLTSEDSAVYYCGRRDSSGWIDYWGQGTTLTVSS VL: DIQMTQTTSSLSASLGDRVTISCRASQDISNYLNWYQQKPDGTVKLLIYYTSRFHSGVPSRFSGSGSGTDYSLTIHNVEQEDIATYFCQQSSMLPFTFGSGTKLEMK | binds
2 | anti-CD206 antibody (No. 27) (antibody, V domains shown) VH: QVQLQQPGAELVKPRASVKLSCRASGYIFISYWMQWVKQRPGQGLEWIGEIDPSDSYINYNQKFKGKASLTVDTSSNTAYMQLSSLTSEDSAVYYCATGDMGDDFYAMDYWGQGTSVTVSS VL: DIVMNQDELSNPVTSGESVSISCRSSKSLLYKDGKTYLNWFLQRPGQSPQLLIYLMSTRASGVSDRFSGSGSGTDFTLEISRVKAEDVGVYYCQQLVEYPFTFGGGTKLEIK | binds
3 | anti-CD206 antibody (No. 35) (antibody, V domains shown) VH: QVQLQQPGAELVKPGASVKVSCKASGYTFTTYWMHWVKQRPGQGLEWIGRIHPSDSDSNYNQKFKGKATLTVDKSSSTAYMQLSSLTSEDSAVYYCAIGRGFAYWGQGTLVTVSA VL: DIVLTQSPASLAVSLGQRAAISCRASESVDNYGNSFMHWYQQKPGQPPKLLIYRASNLESGIPARFSGSGSRTDFTLTINPVEADDVATYYCQQGNEDPYTFGGGTKLEIK | binds
4 | anti-CD206 antibody (No. 44) (antibody, V domains shown) VH: QVQLQQSGAELVRPGTSVKVSCKASGYAFTDYLIEWVKQRPGQGLEWIGVINPGRGGTNYNEKFKGKATLTADKSSSTAYMQLSSLTSEDSAVYFCARYYGRSFGYFDVWGTGTTVTVSS VL: DIQMTQSPASQSASLGESVTITCLASQTIGTWLAWYQQKPGKSPQLLIYAATSLADGVPSRFSGSGSGTKFSFKISSLQAEDFVSYYCQQLYSPPLTFGAGTKLELK | binds
5 | anti-CD206 antibody (No. 47) (antibody, V domains shown) VH: QVQLQQPGAELVRPGSSVKLSCKASGYTFTSYWMDWVKQRPGQGLEWIGNIYPSDSETHYNQKFKDRATLTVDKSSTTAYMQLSSLTSEDSAVYYCTRRDSSGWIDYWGQGTTLTVSS VL: DIQMTQTTSSLSASLGDRVTISCRASQDISNYLNWYQQKPDGTVKLLIYYTSRLHSGVPSRFSGRGSGTDYSLTISNLEQEDIATYFCQQGNTLPFTFGSGTQLEIK | binds
6 | anti-CD206 antibody (No. 54) (antibody, V domains shown) VH: EVQLVESGGGLVQPKGSLKLSCAASGFSFNTYTMNWVRQAPGKGLEWVARIRSKSNNYETYYADSVKDRFTISRDDSESMLYLQMNNLKTEDTAMYYCVSPDSDSWFAYWGQGTLVTVSA VL: DIQMNQSPSSLSASLGDTITIACHASQNINVWLSWYQQKPGNIPKLLIYKASNLHTGVPSRFSGSGSGTGFTLTISSLQPEDIATYYCQQGQSYPLTFGGGTKLEIK | binds
7 | anti-CD206 antibody (No. 72) (antibody, V domains shown) VH: QVQLQQPGAELVRPGSSVKLSCKASGYTFTTYWMHWVKQRPIQGLEWIGNIDPSDSETHYNQKFKDKATLTVDKSSSTAYMQLNSLTSEDSAVYYCARGDGYYVYFAYWGQGTTLTVSS VL: EIVLTQSPALMAASPGEKVTITCSVSSSISSSNLHWYQQKSETSPKPWIYATSNLASGVPVRFSGSGSGTSYSLTISSMAAEDAATYFCQQWSSFPLTFGAGTKLELK | binds
8 | anti-CD206 antibody (No. 83) (antibody, V domains shown) VH: QVQLLQSGAELVRPGTAVKMSCKASEYTFTNYWIGWARQRPGHGLEWIGDIYPGGGYINYNEKFKGKATLTADKSSSTVYMQFSSLTSEDSAIYYCARGGSNYVGHFDYWGQGTTLTVSS VL: DIQMTQTTSSLSASLGDRVTISCRASQDISNYLNWYQQKPDGTVKLLIYYTSILHSRVPSRFSGSGSGTDYSLTISNLEQEDIATYFCQHGHTLPWTFGGGTKLEIK | binds
